## Primary screen of a compound library

Measurements from “University of Dundee, Small-Polar-MMV Screening Library” (2021), ChEMBL document CHEMBL3988442.

A: 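Whole-cell growth test on Mycobacterium tuberculosis, read after 4 days in a medium based on cholesterol and the lipid DPPC; the read-out is not stated. Concentration: 50 µM. Direction is inferred from retests: higher values go with more growth inhibition. Of about 69,000 compounds tested this way, about 370 (0.54%) reached 50% or more in at least one test.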
B: 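Growth of Mycobacterium tuberculosis over 3 days (7H9 medium with glucose and tyloxapol); the read-out is not stated. Compounds at 50 µM. The record gives no direction; compounds that gave an IC50 in retests scored well above the rest, so higher reads as more growth inhibition. About 69,000 compounds were tested under these conditions; 1.1% (about 760) showed 50% or more at least once.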

Results are given as percent effect. The controls that fix the scale are not given in the record; negative values are as filed. The compounds are a random part of those screened. Two or more numbers in one place are separate tests of the same structure; such repeats can differ widely.

{"smiles": "CC(C)[C@H]1CN(c2ccnc(N)n2)C[C@@H]1NC(=O)C1(C#N)CCOCC1", "A": -1.006, "B": 10.44}
{"smiles": "O=C(c1cc(=O)[nH]c(=O)[nH]1)N1CCCC(CO)(CC2CC2)C1", "stereo": "stereo not given", "A": 4.623, "B": 3.202}
{"smiles": "CN1CCOC(CNC(=O)CCc2cc(F)ccc2F)C1", "stereo": "stereo not given", "A": 6.535, "B": "1.932 & -0.227"}
{"smiles": "CCc1ccc(C2COCCN2C(=O)Nc2ccc(C#N)cc2)o1", "stereo": "stereo not given", "A": 14.71, "B": 1.989}
{"smiles": "CN1CC(c2ccccc2)CC2(CCN(C(=O)c3ccccc3)CC2)C1", "stereo": "stereo not given", "A": 7.287, "B": 12.27}
{"smiles": "CCC1CN(C(=O)c2ccc(O)c(C)c2)CCN1C(C)C", "stereo": "stereo not given", "A": -31.99, "B": "-35.85 & 3.093"}
{"smiles": "CN(CCNc1ncc2c(n1)CCN2c1ccccc1)S(C)(=O)=O", "A": 1.222, "B": "3.577 & 28.81"}
{"smiles": "O=C1CC(NS(=O)(=O)c2ccccc2)CN1Cc1ccccc1", "stereo": "stereo not given", "A": -6.148, "B": 22.85}
{"smiles": "O=C(CNC(=O)c1ccoc1)NCCOc1ccc2c(c1)CCC2", "A": "-14.45 & 3.225", "B": -12.12}
{"smiles": "COc1ccccc1N1CCN(C(=O)COc2c(C)occc2=O)CC1", "A": -1.294, "B": 21.32}
{"smiles": "Cc1cc(CN2CCN(C(c3ccccc3)c3ccccc3)CC2)no1", "A": -4.141, "B": 4.892}
{"smiles": "CCN(C)C(=O)c1ccc(N2CCC(Oc3cccc(F)c3)CC2)nc1", "A": 18.16, "B": 39.07}
{"smiles": "CC(=O)NC1CCCN(C(=O)NCc2cccnc2-n2cccn2)C1", "stereo": "stereo not given", "A": -22.01, "B": -15.15}
{"smiles": "CC1=Nc2c(c(=O)[nH]n2C2CCCC2)C(c2ccc(C(=O)O)cc2)S1", "stereo": "stereo not given", "A": "5.525 & -14.62", "B": "20.85 & -17.43"}
{"smiles": "Cn1nccc1C1CCN(Cc2cnn(-c3ccccc3)n2)CC1", "A": -3.524, "B": "3.385 & 11.64"}
{"smiles": "CCC(NC(=O)NCc1ccoc1C)c1c(C)nn(C)c1C", "stereo": "stereo not given", "A": 7.767, "B": "-16.03 & 0.2443"}
{"smiles": "Cc1nc(C2CCCN(C(=O)c3cc(Cl)c4c(c3)OCO4)C2)no1", "stereo": "stereo not given", "A": 22.84, "B": 6.018}
{"smiles": "CN(Cc1c(F)cccc1Cl)C(=O)c1cnn(CCN2CCCCC2)c1", "A": 2.113, "B": "-22.99 & -0.6403"}
{"smiles": "Cc1cccc(CS(=O)(=O)NCC(O)Cc2ccccc2)c1", "stereo": "stereo not given", "A": 10.69, "B": "13.95 & 6.852"}
{"smiles": "COc1ccccc1Oc1ncccc1CNC(=O)[C@H](N)CC(C)(C)C", "A": -11.56, "B": -10.97}
{"smiles": "Cc1cc(-c2ccc(C(=O)O)cc2)nc(C2CCCN(C(C)C)C2)n1", "stereo": "stereo not given", "A": -19.93, "B": 1.195}
{"smiles": "Cc1nn(C)c(C)c1CCC(=O)NCc1csc(N2CCCC2)n1", "A": -6.867, "B": 0.7447}
{"smiles": "Cn1ccnc1C(O)(CCNCc1ccc(Cl)o1)C(F)(F)F", "stereo": "stereo not given", "A": 14.66, "B": "5.368 & -2.849"}
{"smiles": "CN(C)C(=O)c1ccc(C2CCCNC2)nc1.Cl.Cl", "stereo": "stereo not given", "A": -16.44, "B": -13.82}
{"smiles": "CN(C)C(=O)NC1COC2(CCN(C(=O)Nc3ccccc3)CC2)C1", "stereo": "stereo not given", "A": -25.25, "B": -24.07}
{"smiles": "Cc1nn(-c2ccc(C(=O)O)cc2)c2c1C(CC(C)C)SCC(=O)N2", "stereo": "stereo not given", "A": 10.88, "B": "4.088 & 4.385"}
{"smiles": "O=C(CC1CC1)N1CCCn2c(nnc2Cn2cccc2)C1", "A": 8.674, "B": "-1.917 & -27.98"}
{"smiles": "CCN1CC2(CCCCN2C(=O)c2ccn(C)n2)CC1=O", "stereo": "stereo not given", "A": 22.3, "B": 22.34}
{"smiles": "Cc1ncc(CN(C)C2CCCN(c3cccnn3)C2)s1", "stereo": "stereo not given", "A": -7.611, "B": -3.111}
{"smiles": "Cn1cnnc1C1CCN(c2cncc(-n3cccn3)n2)CC1", "A": "10.01 & -1.867", "B": -0.1046}
{"smiles": "Cc1nnc(CN2CCCC2c2ccsc2)o1", "stereo": "stereo not given", "A": 9.439, "B": "-1.343 & 3.51"}
{"smiles": "CN(C)Cc1cc(C2CCN(C(=O)C3CC34CCC4)CC2)nn1C.Cl", "stereo": "stereo not given", "A": "19.41 & 2.229", "B": -11.21}
{"smiles": "CC(C)c1ccc(OCCC(=O)NCCC(=O)N(C)C)cc1", "A": -12.37, "B": "-20.38 & 4.266"}
{"smiles": "CC(C)(C)C(=O)NCCn1ccc(-c2ccncc2)n1", "A": -3.564, "B": "4.145 & 15.37"}
{"smiles": "O=C(O)C1CCCN1c1nc(-c2ccc(Cl)cc2)cc(C(F)(F)F)n1", "stereo": "stereo not given", "A": -23.78, "B": 9.914}
{"smiles": "CC(C)N1CCC2(CC1)CC(CC(N)=O)c1ccc(F)cc12.O=C(O)C(F)(F)F", "stereo": "stereo not given", "A": 4.438, "B": "-2.094 & 6.322"}
{"smiles": "O=C(O)C(F)(F)F.[H][C@@]12CN(Cc3ccco3)CCC[C@]1(C(=O)O)CN(c1ncccn1)C2", "A": -7.266, "B": "5.373 & 5.609"}
{"smiles": "Cn1ccnc1CN1CCC2(CC(=O)N(c3ccc4c(c3)OCO4)C2)C1.O=C(O)C(F)(F)F", "stereo": "stereo not given", "A": "-21.48 & -9.455", "B": -23.32}
{"smiles": "CC(C)(C)c1cc(NC(=O)CN(Cc2ccco2)Cc2cccs2)on1", "A": -16.22, "B": "6.484 & -22.2"}
{"smiles": "COCC(=O)Nc1cc(Br)cnc1OCC(F)(F)F", "A": -18.83, "B": -16.01}
{"smiles": "Cn1cc(-c2c(C#N)c(N)nc3c2CCc2[nH]ccc2-3)cn1", "A": "-77.44 & -28.54", "B": -35.47}
{"smiles": "O=C(O)C(F)(F)F.O=C(O)C(F)(F)F.[H][C@@]12COC[C@]1([H])[C@@H](OCc1cccnc1)CN2Cc1ccco1", "A": 3.509, "B": 33.92}
{"smiles": "CCCC(=O)N1CCC2(CC1)OCCO2", "A": 10.51, "B": -6.475}
{"smiles": "Cc1ccn(CC(=O)N2CC[C@@H](c3ccc4ccccc4c3)[C@H](O)C2)n1", "A": -2.834, "B": "38.84 & 8.073"}

The last 3 entries again:

- O=C(O)C(F)(F)F.O=C(O)C(F)(F)F.[H][C@@]12COC[C@]1([H])[C@@H](OCc1cccnc1)CN2Cc1ccco1 : A: 3.509%; B: 33.92%
- CCCC(=O)N1CCC2(CC1)OCCO2 : A: 10.51%; B: -6.475%
- Cc1ccn(CC(=O)N2CC[C@@H](c3ccc4ccccc4c3)[C@H](O)C2)n1 : A: -2.834%; B: 38.84% & 8.073%